In PubChem BioAssay AID330 (DTP/NCI, 2004):
The list shows only some results of the screen, not a fair sample: it is rich in T/C values a quarter to a half above the control, in often repeated tests (any T/C) and in doses without a T/C. Other doses and runs of a compound stand elsewhere. T/C gives the treated animals as a percentage of the vehicle group. Some doses have a count of surviving animals in place of a T/C: the source files T/C as zero there, which appears to mark a toxic dose or a test without result, not a measured value. Some survivor counts are full or nearly so, which does not show that the dose was tolerated: survival well below the control is almost never listed, so the zero probably covers shortened survival too. Survivors were counted at the toxicity check, usually on the fifth day, unless a day is given; later deaths do not show. Schedules are NCI's codes, read here as Q, the interval in days (D) or hours (H), X, the number of doses. Some doses were run more than once; their values stand side by side, smallest first. Some structures stand for samples that the source files as different forms (salt, stereo form or complex); doses refer to the form tested. Counts like (3×) give the number of equal values in this list. Where survival is the endpoint, the PubChem record calls one and a half times the control and up active, and a quarter to a half above the control has no call in these data; cut-offs in other NCI protocols can differ. Some T/C values carry the count of animals alive at the toxicity check (mostly the fifth day); where none is given, no animal had died by that day.

Tested on: P388 leukemia ip, CD2F1 mice, survival T/C
Experiment: NCI In Vivo Anticancer Drug Screen. Data for tumor model P388 Leukemia (intraperitoneal) in CD2F1 (CDF1) mice
Settings: T/C endpoint: median survival time, higher T/C = longer survival
[1] = dose: 50.0 mg/kg/injection, schedule: Q01DX009 (ip), vehicle: saline with Tween-80
[2] = dose: 100.0 mg/kg/injection, schedule: Q01DX009 (ip), vehicle: saline with Tween-80
[3] = dose: 200.0 mg/kg/injection, schedule: Q01DX009 (ip), vehicle: saline with Tween-80
[4] = dose: 100.0 mg/kg/injection, schedule: Q01DX009 (ip), vehicle: Klucel (hydroxypropylcellulose) (HPC)
[5] = dose: 400.0 mg/kg/injection, schedule: Q04DX003 (ip), vehicle: saline with Tween-80
[6] = dose: 240.0 mg/kg/injection, schedule: Q01DX005 (ip), vehicle: saline with Tween-80
[7] = dose: 100.0 mg/kg/injection, schedule: Q04DX003 (ip), vehicle: saline with Tween-80
[8] = dose: 240.0 mg/kg/injection, schedule: Q01DX005 (ip), vehicle: saline
[9] = dose: 12.5 mg/kg/injection, schedule: Q01DX009 (ip), vehicle: Klucel (hydroxypropylcellulose) (HPC)
[10] = dose: 25.0 mg/kg/injection, schedule: Q01DX009 (ip), vehicle: Klucel (hydroxypropylcellulose) (HPC)
[11] = dose: 50.0 mg/kg/injection, schedule: Q01DX009 (ip), vehicle: Klucel (hydroxypropylcellulose) (HPC)
[12] = dose: 200.0 mg/kg/injection, schedule: Q01DX009 (ip), vehicle: Klucel (hydroxypropylcellulose) (HPC)
[13] = dose: 400.0 mg/kg/injection, schedule: Q01DX009 (ip), vehicle: other

## Nc1ccc(N=C2C=CC(=O)C=C2)c(N)c1
[1]
  T/C: 125 % of control
dose: 50.0 mg/kg/injection, schedule: Q01DX009 (ip), vehicle: saline
  survivor count: 6 of 6
[2]
  T/C: 135 % of control
dose: 100.0 mg/kg/injection, schedule: Q01DX009 (ip), vehicle: saline
  survivor count: 6 of 6
[3]
  survivor count: 4 of 6

## O=[N+]([O-])c1cc(C(F)(F)F)ccc1F
[4]
  survivor count: 2 of 6

## COc1cc(NS(C)(=O)=O)ccc1Nc1c2ccc([N+](=O)[O-])cc2nc2c(C)c(C)ccc12
dose: 0.1 mg/kg/injection, schedule: Q01DX009 (ip), vehicle: saline with Tween-80
  T/C: 129 % of control
dose: 0.15 mg/kg/injection, schedule: Q01DX009 (ip), vehicle: saline with Tween-80
  T/C: 130 % of control
dose: 0.33 mg/kg/injection, schedule: Q01DX009 (ip), vehicle: saline with Tween-80
  T/C: 143 % of control
dose: 0.5 mg/kg/injection, schedule: Q01DX009 (ip), vehicle: saline with Tween-80
  T/C: 139 % of control
dose: 0.75 mg/kg/injection, schedule: Q01DX009 (ip), vehicle: saline with Tween-80
  T/C: 148 % of control
dose: 25.0 mg/kg/injection, schedule: Q01DX009 (ip), vehicle: saline with Tween-80
  survivor count: 5 of 6
[1]
  survivor count: 5 of 6
[2]
  survivor count: 5 of 6

## CCCCCCCCCCCC(=O)NN
[2]
  survivor count: 6 of 6
[3]
  survivor count: 5 of 6
[5]
  survivor count: 5 of 6

## CCOC(=O)c1sc(=S)n(CC)c1C
dose: 200.0 mg/kg/injection, schedule: Q01DX005 (ip), vehicle: saline with Tween-80
  survivor count: 0 of 6

## NCC(=O)OCN1C(=O)C2C3C=CC(C2C1=O)C1C2C(=O)N(COC(=O)CN)C(=O)C2C31 (stereo not drawn)
dose: 100.0 mg/kg/injection, schedule: Q01DX009 (ip), vehicle: water
  T/C: 135 and 149 % of control
dose: 200.0 mg/kg/injection, schedule: Q01DX009 (ip), vehicle: water
  T/C: 132 % of control
dose: 206.0 mg/kg/injection, schedule: Q01DX009 (ip), vehicle: water
  survivor count: 2 of 6

## CCN=NNc1ccc(C(C)=O)cc1
dose: 100.0 mg/kg/injection, schedule: Q01DX009 (ip), vehicle: distilled water + Tween-80
  T/C: 138 % of control
dose: 200.0 mg/kg/injection, schedule: Q01DX009 (ip), vehicle: distilled water + Tween-80
  survivor count: 2 of 5 (2×)

## C1CN2CCN1CC2.[Cl][Pt]([Cl])[Cl]
dose: 400.0 mg/kg/injection, schedule: Q04DX002 (ip), vehicle: saline with Tween-80
  survivor count: 0 of 6

## CN(C)CCCN1c2ccccc2CCc2ccccc21
[6]
  survivor count: 3 of 6

## Cc1ccc(C(C(C)[N+](=O)[O-])C(C(=O)c2ccccc2)S(=O)(=O)c2ccccc2)cc1 (stereo not drawn)
dose: 50.0 mg/kg/injection, schedule: Q01DX005 (ip), vehicle: Klucel (hydroxypropylcellulose) (HPC)
  survivor count: 6 of 6

## O=C(Oc1ccccc1)c1cc(O)c(O)c(O)c1
dose: 400.0 mg/kg/injection, schedule: Q01DX005 (ip), vehicle: saline with Tween-80
  survivor count: 0 of 6

## CCOC(=O)Cc1c[nH]c2ccc(N(CCCl)CCCl)cc12
dose: 19.0 mg/kg/injection, schedule: Q04DX003 (ip), vehicle: Klucel (hydroxypropylcellulose) (HPC)
  survivor count: 5 of 6

## CCCCCCCCCCCCCC(C)NCc1ccccc1 (stereo not drawn)
[7]
  survivor count: 4 of 6

## COc1nc(N2CCNCC2)nc2c1CCCC2
[8]
  survivor count: 0 of 6

## COc1ccc(OC)c(C2N(Cc3ccccc3N(C)C)CCCN2Cc2ccccc2N(C)C)c1
dose: 200.0 mg/kg/injection, schedule: Q04DX003 (ip), vehicle: saline with Tween-80
  survivor count: 3 of 6

## CCC1(c2ccc(-c3ccccc3)cc2)OC(OC(=O)NC)C=CC1=O (stereo not drawn)
[9]
  T/C: 102, 103, 115 % of control
  survivor count: 0 of 6
[10]
  T/C: 105, 111 [5 of 6 alive], 140 % of control
  survivor count: 0 of 6
[11]
  T/C: 92 % of control [5 of 6 alive]
  survivor count: 0 of 6, 4 of 6, 6 of 6
[4]
  survivor count: 0 of 6
[12]
  survivor count: 0 of 6

## O=C(O)CCCCCCCCCCNC(=O)CCl
[12]
  survivor count: 1 of 6

## COc1ccc2c(c1)N(CCC1CCCCN1C)c1ccccc1S2 (stereo not drawn)
dose: 100.0 mg/kg/injection, schedule: Q04DX003 (ip), vehicle: saline
  survivor count: 3 of 6

## N=c1ccn2c(n1)OC1C(O)C(CO)OC12 (stereo not drawn)
dose: 37.5 mg/kg/injection, schedule: Q01DX009 (ip), vehicle: saline
  T/C: 145 % of control
dose: 80.0 mg/kg/injection, schedule: Q01DX005 (ip), vehicle: saline
  T/C: 141 % of control
dose: 80.0 mg/kg/injection, schedule: Q01DX005 (iv), vehicle: saline
  T/C: 141 % of control

## CC(=O)C(C[n+]1ccccc1)c1ccccc1 (stereo not drawn)
dose: 120.0 mg/kg/injection, schedule: Q01DX005 (ip), vehicle: saline
  survivor count: 4 of 6
[8]
  survivor count: 0 of 6

## O=[N+]([O-])c1cccc2nc(Cl)ccc12
dose: 200.0 mg/kg/injection, schedule: Q01DX009 (ip), vehicle: other
  survivor count: 3 of 6
[13]
  survivor count: 0 of 6

## Cc1nc(C(=O)O)cc([N+](=O)[O-])c1C
[13]
  survivor count: 0 of 6

## CNC(=S)N/N=C/c1nccc(-c2ccccc2)c1C
[7]
  T/C: 137 % of control
[5]
  survivor count: 3 of 6

## CC[C@@]12C[C@H]3CN(CCc4c([nH]c5ccccc45)[C@@](C(=O)OC)(c4cc5c(cc4OC)N(C)[C@H]4[C@@](O)(C(=O)OC)[C@H](OC(C)=O)[C@]6(CC)C=CCN7CC[C@]54[C@@H]76)C3O1)C2 (stereo partly drawn)
dose: 2.0 mg/kg/injection, schedule: Q01DX001 (ip), vehicle: distilled water + Tween-80
  T/C: 128 % of control

## Cc1cc(C)c(C#N)c(SCC#CCSc2nc(C)cc(C)c2C#N)n1
dose: 12.5 mg/kg/injection, schedule: Q01DX005 (ip), vehicle: saline with Tween-80
  survivor count: 5 of 5
dose: 25.0 mg/kg/injection, schedule: Q01DX005 (ip), vehicle: saline with Tween-80
  survivor count: 5 of 5
dose: 50.0 mg/kg/injection, schedule: Q01DX005 (ip), vehicle: saline with Tween-80
  survivor count: 5 of 5

## Cc1c2cc[n+](C)cc2c(C)c2c1[nH]c1ccccc12
dose: 3.12 mg/kg/injection, schedule: Q04DX002 (ip), vehicle: distilled water + Tween-80
  T/C: 133 % of control
dose: 5.0 mg/kg/injection, schedule: Q04DX002 (ip), vehicle: water
  T/C: 130 and 138 % of control
dose: 6.25 mg/kg/injection, schedule: Q04DX002 (ip), vehicle: distilled water + Tween-80
  T/C: 126 % of control (2×)
dose: 10.0 mg/kg/injection, schedule: Q04DX002 (ip), vehicle: water
  T/C: 134 and 144 % of control
dose: 12.5 mg/kg/injection, schedule: Q04DX002 (ip), vehicle: distilled water + Tween-80
  T/C: 138 % of control
dose: 20.0 mg/kg/injection, schedule: Q04DX002 (ip), vehicle: water
  T/C: 137 [5 of 6 alive] and 145 % of control
dose: 25.0 mg/kg/injection, schedule: Q04DX002 (ip), vehicle: distilled water + Tween-80
  T/C: 125 and 145 % of control
dose: 40.0 mg/kg/injection, schedule: Q04DX002 (ip), vehicle: water
  survivor count: 3 of 6 and 5 of 6
dose: 50.0 mg/kg/injection, schedule: Q04DX002 (ip), vehicle: distilled water + Tween-80
  survivor count: 4 of 6 and 6 of 6
dose: 80.0 mg/kg/injection, schedule: Q04DX002 (ip), vehicle: water
  survivor count: 1 of 6
dose: 100.0 mg/kg/injection, schedule: Q04DX002 (ip), vehicle: distilled water + Tween-80
  survivor count: 4 of 6
dose: 200.0 mg/kg/injection, schedule: Q04DX002 (ip), vehicle: distilled water + Tween-80
  survivor count: 0 of 6

## O=C(/N=C1\N=Nc2nc(C3(c4nc5n(c4O)/C(=N/C(=O)Nc4ccc(Cl)cc4)N=N5)CCCC3=O)c(O)n21)Nc1ccc(Cl)cc1 (stereo not drawn)
[6]
  survivor count: 6 of 6
